These are yes or no findings as the source states them, for the method shown. Some binding calls cover weakened binding; strength is not graded here.
How the values were obtained:
[1] = biological target: Human CD3 expressed on Jurkat NFAT reporter T cells (human) (UniProt P07766); experiment: flow cytometry on Jurkat NFAT cells, PE anti-human Fc secondary antibody
[2] = biological target: Human CD3 expressed on Jurkat NFAT reporter T cells (human) (UniProt P07766); experiment: flow cytometry on CD3-expressing cells (cell type not named there), IgG format
[3] = biological target: 組み換えTYRP1(Sino Biologicals) (bought recombinant human TYRP1) (human) (UniProt P17643); experiment: SPR, relative active concentration after 14 days at 37 or 40 degrees C, recombinant TYRP1 (Sino Biologicals) as antigen

By UniProt entry, the sequences of proteins in these tests, tags left out. Where a name states a change or a piece, a line headed by the entry shows the natural chain unless it says otherwise.
UniProt P07766: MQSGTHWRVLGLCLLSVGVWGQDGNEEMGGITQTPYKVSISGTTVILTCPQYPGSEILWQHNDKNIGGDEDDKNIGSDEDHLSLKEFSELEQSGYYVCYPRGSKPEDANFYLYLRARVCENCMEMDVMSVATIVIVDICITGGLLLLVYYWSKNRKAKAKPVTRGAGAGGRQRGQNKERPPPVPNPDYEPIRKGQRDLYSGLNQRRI
UniProt P17643: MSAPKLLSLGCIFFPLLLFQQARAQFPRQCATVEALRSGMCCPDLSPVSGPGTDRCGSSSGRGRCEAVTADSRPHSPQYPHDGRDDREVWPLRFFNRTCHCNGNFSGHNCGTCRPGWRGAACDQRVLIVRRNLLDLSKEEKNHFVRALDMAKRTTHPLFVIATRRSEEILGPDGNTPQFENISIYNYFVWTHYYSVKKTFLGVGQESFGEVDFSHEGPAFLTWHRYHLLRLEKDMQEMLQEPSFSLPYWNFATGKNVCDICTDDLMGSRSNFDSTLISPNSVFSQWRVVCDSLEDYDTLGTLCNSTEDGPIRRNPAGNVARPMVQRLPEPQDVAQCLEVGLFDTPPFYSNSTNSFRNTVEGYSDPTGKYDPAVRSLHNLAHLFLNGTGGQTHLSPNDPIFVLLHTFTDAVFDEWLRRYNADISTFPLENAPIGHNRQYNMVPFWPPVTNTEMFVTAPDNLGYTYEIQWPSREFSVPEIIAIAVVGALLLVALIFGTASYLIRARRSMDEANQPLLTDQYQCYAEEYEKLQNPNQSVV

binding [1]	binding [2]	binding [3]	Binder
binds	binds		CD3 opt ヒトIgG1 PGLALA (optimized CD3 binder, human IgG1 with P329G L234A L235A) (antibody, V domains shown) VH: EVQLLESGGGLVQPGGSLRLSCAASGFQFSSYAMNWVRQAPGKGLEWVSRIRSKYNNYATYYADSVKGRFTISRDDSKNTLYLQMNSLRAEDTAVYYCVRHTTFPSSYVSYYGYWGQGTLVTVSS VL: QAVVTQEPSLTVSPGGTVTLTCGSSTGAVTTSNYANWVQEKPGQAFRGLIGGTNKRAPGTPARFSGSLLGGKAALTLSGAQPEDEAEYYCALWYSNLWVFGGGTKLTVLR
		binds	TYRP1 IgG (the TYRP1 binder of the TCB in IgG format) (antibody, V domains shown) VH: QVQLVQSGAEVKKPGASVKVSCKASGFNIKDYFLHWVRQAPGQGLEWMGWINPDNGNTVYAQKFQGRVTMTADTSTSTVYMELSSLRSEDTAVYYCTRRDYTYEKAALDYWGQGTLVTVSS VL: DIQMTQSPSSLSASVGDRVTITCRASGNIYNYLAWYQQKPGKVPKLLIYDAKTLADGVPSRFSGSGSGTDFTLTISSLQPEDVATYYCQHFWSLPFTFGQGTKLEIK

Reference: patent JP2022028645A
